Laboratory results: PubChem BioAssay AID1224828 (NIAID, 2016)
Assay: 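Knock-downs that increase or decrease LPS-induced p65 nuclear translocation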 (primary screen). Cells: mouse RAW264.7 G9 macrophage reporter cells (GFP-p65, Tnf promoter-mCherry). Reagents: siRNA pool against mouse genes, 100 nM. Duration: 2 days siRNA transfection, then 40 min LPS before fixation. Treatment: LPS (Salmonella minnesota R595) at 10 ng/ml. Detection: 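Microscopy ratio of nuclear to perinuclear-ring GFP-p65 signal, scaled to the plate median; gene score is the average of two replicate robust z-scores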. Direction: p65 translocation robust z-score: higher = more nuclear NF-kappaB p65 after LPS than the plate median; nuclear/cytoplasmic p65 ratio: higher = more nuclear NF-kappaB p65. Call rule: 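Called active when z exceeds 3.3 or falls under -1.56 (median of Tlr4 controls), giving activity score of at least 50; no calls for control wells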. Calls: active = hit (p65 shift raised or lowered); inactive = no clear change.
This is a random part of about 17,000 reagents. 762 of all reagents (4.5%) count as active. 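Active calls include both raised and lowered p65 entry, mostly lowered; wells with fewer than 50 cells lack a z-score.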 Raw values vary from plate to plate and are shown uncorrected.

no.	Target gene	p65 translocation robust z-score	nuclear/cytoplasmic p65 ratio, rep 1	nuclear/cytoplasmic p65 ratio, rep 2	low cell count flag	Outcome
1	Atp5f1d (GeneID 66043)		1.09	1.29	fewer than 50 cells per well; well left out of scoring	inactive
2	Slc9a1 (GeneID 20544)		1.41	1.34	fewer than 50 cells per well; well left out of scoring	inactive
3	Mybpc2 (GeneID 233199)	-0.29	1.74	1.55	enough cells to score	inactive
4	Zfp42 (GeneID 22702)		0	1.38	fewer than 50 cells per well; well left out of scoring	inactive
5	Zbed4 (GeneID 223773)	0.95	1.88	1.67	enough cells to score	inactive
6	Tagln (GeneID 21345)	0.32	1.56	1.52	enough cells to score	inactive
7	Cntn2 (GeneID 21367)	-0.34	1.02	1.34	enough cells to score	inactive
8	Terf1 (GeneID 21749)	-0.01	1.49	1.54	enough cells to score	inactive
9	Dusp1 (GeneID 19252)	-0.6	1.52	1.31	enough cells to score	inactive
10	Cts3 (GeneID 117066)	-0.47	1.53	1.69	enough cells to score	inactive
11	Ltv1 (GeneID 353258)		1.87	1.57	fewer than 50 cells per well; well left out of scoring	inactive
12	Pnmt (GeneID 18948)	0.39	1.64	1.38	enough cells to score	inactive
13	Rgs16 (GeneID 19734)	-0.58	1.36	1.57	enough cells to score	inactive
14	Hmox2 (GeneID 15369)	-1.64	1.18	1.2	enough cells to score	active
15	Il12rb2 (GeneID 16162)	1.32	1.67	1.49	enough cells to score	inactive
16	Sars2 (GeneID 71984)	0.81	1.55	1.29	enough cells to score	inactive
17	Stx2 (GeneID 13852)	-2.26	1.22	1.07	enough cells to score	active
18	Chtf18 (GeneID 214901)	0.44	1.7	1.81	enough cells to score	inactive
19	Creb3l3 (GeneID 208677)	0.79	1.52	2.1	enough cells to score	inactive
20	H2-Q6 (GeneID 110557)	-1.28	1.17	1.3	enough cells to score	inactive
21	Snf8 (GeneID 27681)	-0.42	1.44	1.79	enough cells to score	inactive
22	Slc20a2 (GeneID 20516)	1.52	1.61	1.42	enough cells to score	inactive
23	Mxd4 (GeneID 17122)	0.61	1.56	1.39	enough cells to score	inactive
24	Or5p62 (GeneID 258489)	-2.16	1.12	1.02	enough cells to score	active
25	H2-Q2 (GeneID 15013)	-2.28	1.23	1.1	enough cells to score	active
26	Or2w1 (GeneID 18341)	2.06	2.01	1.67	enough cells to score	inactive
27	Ddx54 (GeneID 71990)	-0.36	1.45	1.56	enough cells to score	inactive
28	Ash2l (GeneID 23808)	-0.12	1.47	1.61	enough cells to score	inactive
29	Krt34 (GeneID 16672)	-0.46	1.47	1.39	enough cells to score	inactive
30	Ca6 (GeneID 12353)	-1.2	1.42	1.58	enough cells to score	inactive
31	Ift52 (GeneID 245866)	-1.44	1.23	1.33	enough cells to score	inactive
32	Serpinb1b (GeneID 282663)	-0.41	1.35	1.22	enough cells to score	inactive
33	Idua (GeneID 15932)	0.38	1.45	1.46	enough cells to score	inactive
34	Mtmr1 (GeneID 53332)	-0.43	1.4	1.28	enough cells to score	inactive
35	Glud1 (GeneID 14661)	-0.28	1.31	1.42	enough cells to score	inactive
36	Cdh5 (GeneID 12562)	1.37	1.68	1.53	enough cells to score	inactive
37	Pax2 (GeneID 18504)	-0.23	1.4	1.4	enough cells to score	inactive
38	Ccdc54 (GeneID 69339)	-0.03	1.53	1.42	enough cells to score	inactive
39	Cst9 (GeneID 13013)	0.78	1.66	1.94	enough cells to score	inactive
40	Cdcp2 (GeneID 242603)	-0.71	1.43	1.72	enough cells to score	inactive

Look-ups from the entries so far.
For “Outcome”, Cdcp2 (GeneID 242603) has inactive
Under “low cell count flag”, Atp5f1d (GeneID 66043) reads fewer than 50 cells per well; well left out of scoring
Under “nuclear/cytoplasmic p65 ratio, rep 1”, Cts3 (GeneID 117066) reads 1.53
Value for H2-Q2 (GeneID 15013) in “Outcome”: active
Value of Zfp42 (GeneID 22702) in “nuclear/cytoplasmic p65 ratio, rep 2”: 1.38
Slc20a2 (GeneID 20516), p65 translocation robust z-score = 1.52
